# Measured values: paper PMC4627417
# Results are given in words; binding and its absence hold for the method and conditions named. In cells and extracts the contact can be indirect. Here binding means that the protein was enriched with, or labelled near, the bait; the list need not be complete. Tags and fused reporters may be left off the sequences shown.
# B1: PRKRA (protein, UniProt O75569 1-313)
# chain: MSQSRHRAEAPPLEREDSGTFSLGKMITAKPGKTPIQVLHEYGMKTKNIPVYECERSDVQIHVPTFTFRVTVGDITCTGEGTSKKLAKHRAAEAAINILKANASICFAVPDPLMPDPSKQPKNQLNPIGSLQELAIHHGWRLPEYTLSQEGGPAHKREYTTICRLESFMETGKGASKKQAKRNAAEKFLAKFSNISPENHISLTNVVGHSLGCTWHSLRNSPGEKINLLKRSLLSIPNTDYIQLLSEIAKEQGFNITYLDIDELSANGQYQCLAELSTSPITVCHGSGISCGNAQSDAAHNALQYLKIIAERK
# B2: DDX42 (protein, UniProt Q86XP3 1-938)
# chain: MNWNKGGPGTKRGFGFGGFAISAGKKEEPKLPQQSHSAFGATSSSSGFGKSAPPQLPSFYKIGSKRANFDEENAYFEDEEEDSSNVDLPYIPAENSPTRQQFHSKPVDSDSDDDPLEAFMAEVEDQAARDMKRLEEKDKERKNVKGIRDDIEEEDDQEAYFRYMAENPTAGVVQEEEEDNLEYDSDGNPIAPTKKIIDPLPPIDHSEIDYPPFEKNFYNEHEEITNLTPQQLIDLRHKLNLRVSGAAPPRPGSSFAHFGFDEQLMHQIRKSEYTQPTPIQCQGVPVALSGRDMIGIAKTGSGKTAAFIWPMLIHIMDQKELEPGDGPIAVIVCPTRELCQQIHAECKRFGKAYNLRSVAVYGGGSMWEQAKALQEGAEIVVCTPGRLIDHVKKKATNLQRVSYLVFDEADRMFDMGFEYQVRSIASHVRPDRQTLLFSATFRKKIEKLARDILIDPIRVVQGDIGEANEDVTQIVEILHSGPSKWNWLTRRLVEFTSSGSVLLFVTKKANAEELANNLKQEGHNLGLLHGDMDQSERNKVISDFKKKDIPVLVATDVAARGLDIPSIKTVINYDVARDIDTHTHRIGRTGRAGEKGVAYTLLTPKDSNFAGDLVRNLEGANQHVSKELLDLAMQNAWFRKSRFKGGKGKKLNIGGGGLGYRERPGLGSENMDRGNNNVMSNYEAYKPSTGAMGDRLTAMKAAFQSQYKSHFVAASLSNQKAGSSAAGASGWTSAGSLNSVPTNSAQQGHNSPDSPVTSAAKGIPGFGNTGNISGAPVTYPSAGAQGVNNTASGNNSREGTGGSNGKRERYTENRGSSRHSHGETGNRHSDSPRHGDGGRHGDGYRHPESSSRHTDGHRHGENRHGGSAGRHGENRGANDGRNGESRKEAFNRESKMEPKMEPKVDSSKMDKVDSKTDKTADGFAVPEPPKRKKSRWDS
# B3: CPSF1 (protein, UniProt Q10570 1-1443)
# chain: MYAVYKQAHPPTGLEFSMYCNFFNNSERNLVVAGTSQLYVYRLNRDAEALTKNDRSTEGKAHREKLELAASFSFFGNVMSMASVQLAGAKRDALLLSFKDAKLSVVEYDPGTHDLKTLSLHYFEEPELRDGFVQNVHTPRVRVDPDGRCAAMLVYGTRLVVLPFRRESLAEEHEGLVGEGQRSSFLPSYIIDVRALDEKLLNIIDLQFLHGYYEPTLLILFEPNQTWPGRVAVRQDTCSIVAISLNITQKVHPVIWSLTSLPFDCTQALAVPKPIGGVVVFAVNSLLYLNQSVPPYGVALNSLTTGTTAFPLRTQEGVRITLDCAQATFISYDKMVISLKGGEIYVLTLITDGMRSVRAFHFDKAAASVLTTSMVTMEPGYLFLGSRLGNSLLLKYTEKLQEPPASAVREAADKEEPPSKKKRVDATAGWSAAGKSVPQDEVDEIEVYGSEAQSGTQLATYSFEVCDSILNIGPCANAAVGEPAFLSEEFQNSPEPDLEIVVCSGHGKNGALSVLQKSIRPQVVTTFELPGCYDMWTVIAPVRKEEEDNPKGEGTEQEPSTTPEADDDGRRHGFLILSREDSTMILQTGQEIMELDTSGFATQGPTVFAGNIGDNRYIVQVSPLGIRLLEGVNQLHFIPVDLGAPIVQCAVADPYVVIMSAEGHVTMFLLKSDSYGGRHHRLALHKPPLHHQSKVITLCLYRDLSGMFTTESRLGGARDELGGRSGPEAEGLGSETSPTVDDEEEMLYGDSGSLFSPSKEEARRSSQPPADRDPAPFRAEPTHWCLLVRENGTMEIYQLPDWRLVFLVKNFPVGQRVLVDSSFGQPTTQGEARREEATRQGELPLVKEVLLVALGSRQSRPYLLVHVDQELLIYEAFPHDSQLGQGNLKVRFKKVPHNINFREKKPKPSKKKAEGGGAEEGAGARGRVARFRYFEDIYGYSGVFICGPSPHWLLVTGRGALRLHPMAIDGPVDSFAPFHNVNCPRGFLYFNRQGELRISVLPAYLSYDAPWPVRKIPLRCTAHYVAYHVESKVYAVATSTNTPCARIPRMTGEEKEFETIERDERYIHPQQEAFSIQLISPVSWEAIPNARIELQEWEHVTCMKTVSLRSEETVSGLKGYVAAGTCLMQGEEVTCRGRILIMDVIEVVPEPGQPLTKNKFKVLYEKEQKGPVTALCHCNGHLVSAIGQKIFLWSLRASELTGMAFIDTQLYIHQMISVKNFILAADVMKSISLLRYQEESKTLSLVSRDAKPLEVYSVDFMVDNAQLGFLVSDRDRNLMVYMYLPEAKESFGGMRLLRRADFHVGAHVNTFWRTPCRGATEGLSKKSVVWENKHITWFATLDGGIGLLLPMQEKTYRRLLMLQNALTTMLPHHAGLNPRAFRMLHVDRRTLQNAVRNVLDGELLNRYLYLSTMERSELAKKIGTTPDIILDDLLETDRVTAHF
# B4: SEC31A (protein, UniProt O94979 1-1220)
# chain: MKLKEVDRTAMQAWSPAQNHPIYLATGTSAQQLDATFSTNASLEIFELDLSDPSLDMKSCATFSSSHRYHKLIWGPYKMDSKGDVSGVLIAGGENGNIILYDPSKIIAGDKEVVIAQNDKHTGPVRALDVNIFQTNLVASGANESEIYIWDLNNFATPMTPGAKTQPPEDISCIAWNRQVQHILASASPSGRATVWDLRKNEPIIKVSDHSNRMHCSGLAWHPDVATQMVLASEDDRLPVIQMWDLRFASSPLRVLENHARGILAIAWSMADPELLLSCGKDAKILCSNPNTGEVLYELPTNTQWCFDIQWCPRNPAVLSAASFDGRISVYSIMGGSTDGLRQKQVDKLSSSFGNLDPFGTGQPLPPLQIPQQTAQHSIVLPLKKPPKWIRRPVGASFSFGGKLVTFENVRMPSHQGAEQQQQQHHVFISQVVTEKEFLSRSDQLQQAVQSQGFINYCQKKIDASQTEFEKNVWSFLKVNFEDDSRGKYLELLGYRKEDLGKKIALALNKVDGANVALKDSDQVAQSDGEESPAAEEQLLGEHIKEEKEESEFLPSSGGTFNISVSGDIDGLITQALLTGNFESAVDLCLHDNRMADAIILAIAGGQELLARTQKKYFAKSQSKITRLITAVVMKNWKEIVESCDLKNWREALAAVLTYAKPDEFSALCDLLGTRLENEGDSLLQTQACLCYICAGNVEKLVACWTKAQDGSHPLSLQDLIEKVVILRKAVQLTQAMDTSTVGVLLAAKMSQYANLLAAQGSIAAALAFLPDNTNQPNIMQLRDRLCRAQGEPVAGHESPKIPYEKQQLPKGRPGPVAGHHQMPRVQTQQYYPHGENPPPPGFIMHGNVNPNAAGQLPTSPGHMHTQVPPYPQPQPYQPAQPYPFGTGGSAMYRPQQPVAPPTSNAYPNTPYISSASSYTGQSQLYAAQHQASSPTSSPATSFPPPPSSGASFQHGGPGAPPSSSAYALPPGTTGTLPAASELPASQRTGPQNGWNDPPALNRVPKKKKMPENFMPPVPITSPIMNPLGDPQSQMLQQQPSAPVPLSSQSSFPQPHLPGGQPFHGVQQPLGQTGMPPSFSKPNIEGAPGAPIGNTFQHVQSLPTKKITKKPIPDEHLILKTTFEDLIQRCLSSATDPQTKRKLDDASKRLEFLYDKLREQTLSPTITSGLHNIARSIETRNYSEGLTMHTHIVSTSNFSETSAFMPVLKVVLTQANKLGV
# B5: CDKN2AIP (protein, UniProt Q9NXV6 1-580)
# chain: MAQEVSEYLSQNPRVAAWVEALRCDGETDKHWRHRRDFLLRNAGDLAPAGGAASASTDEAADAESGTRNRQLQQLISFSMAWANHVFLGCRYPQKVMDKILSMAEGIKVTDAPTYTTRDELVAKVKKRGISSSNEGVEEPSKKRVIEGKNSSAVEQDHAKTSAKTERASAQQENSSTCIGSAIKSESGNSARSSGISSQNSSTSDGDRSVSSQSSSSVSSQVTTAGSGKASEAEAPDKHGSASFVSLLKSSVNSHMTQSTDSRQQSGSPKKSALEGSSASASQSSSEIEVPLLGSSGSSEVELPLLSSKPSSETASSGLTSKTSSEASVSSSVAKNSSSSGTSLLTPKSSSSTNTSLLTSKSTSQVAASLLASKSSSQTSGSLVSKSTSLASVSQLASKSSSQTSTSQLPSKSTSQSSESSVKFSCKLTNEDVKQKQPFFNRLYKTVAWKLVAVGGFSPNVNHGELLNAAIEALKATLDVFFVPLKELADLPQNKSSQESIVCELRCKSVYLGTGCGKSKENAKAVASREALKLFLKKKVVVKICKRKYRGSEIEDLVLLDEESRPVNLPPALKHPQELL
# B6: HNRNPH3 (protein, UniProt P31942 1-346)
# chain: MDWVMKHNGPNDASDGTVRLRGLPFGCSKEEIVQFFQGLEIVPNGITLTMDYQGRSTGEAFVQFASKEIAENALGKHKERIGHRYIEIFRSSRSEIKGFYDPPRRLLGQRPGPYDRPIGGRGGYYGAGRGSMYDRMRRGGDGYDGGYGGFDDYGGYNNYGYGNDGFDDRMRDGRGMGGHGYGGAGDASSGFHGGHFVHMRGLPFRATENDIANFFSPLNPIRVHIDIGADGRATGEADVEFVTHEDAVAAMSKDKNNMQHRYIELFLNSTPGGGSGMGGSGMGGYGRDGMDNQGGYGSVGRMGMGNNYSGGYGTPDGLGGYGRGGGGSGGYYGQGGMSGGGWRGMY
# B7: RBM17 (protein, UniProt Q96I25 1-401)
# chain: MSLYDDLGVETSDSKTEGWSKNFKLLQSQLQVKKAALTQAKSQRTKQSTVLAPVIDLKRGGSSDDRQIVDTPPHVAAGLKDPVPSGFSAGEVLIPLADEYDPMFPNDYEKVVKRQREERQRQRELERQKEIEEREKRRKDRHEASGFARRPDPDSDEDEDYERERRKRSMGGAAIAPPTSLVEKDKELPRDFPYEEDSRPRSQSSKAAIPPPVYEEQDRPRSPTGPSNSFLANMGGTVAHKIMQKYGFREGQGLGKHEQGLSTALSVEKTSKRGGKIIVGDATEKDASKKSDSNPLTEILKCPTKVVLLRNMVGAGEVDEDLEVETKEECEKYGKVGKCVIFEIPGAPDDEAVRIFLEFERVESAIKAVVDLNGRYFGGRVVKACFYNLDKFRVLDLAEQV
# B8: CPSF2 (protein, UniProt Q9P2I0 1-782)
# chain: MTSIIKLTTLSGVQEESALCYLLQVDEFRFLLDCGWDEHFSMDIIDSLRKHVHQIDAVLLSHPDPLHLGALPYAVGKLGLNCAIYATIPVYKMGQMFMYDLYQSRHNTEDFTLFTLDDVDAAFDKIQQLKFSQIVNLKGKGHGLSITPLPAGHMIGGTIWKIVKDGEEEIVYAVDFNHKREIHLNGCSLEMLSRPSLLITDSFNATYVQPRRKQRDEQLLTNVLETLRGDGNVLIAVDTAGRVLELAQLLDQIWRTKDAGLGVYSLALLNNVSYNVVEFSKSQVEWMSDKLMRCFEDKRNNPFQFRHLSLCHGLSDLARVPSPKVVLASQPDLECGFSRDLFIQWCQDPKNSIILTYRTTPGTLARFLIDNPSEKITEIELRKRVKLEGKELEEYLEKEKLKKEAAKKLEQSKEADIDSSDESDIEEDIDQPSAHKTKHDLMMKGEGSRKGSFFKQAKKSYPMFPAPEERIKWDEYGEIIKPEDFLVPELQATEEEKSKLESGLTNGDEPMDQDLSDVPTKCISTTESIEIKARVTYIDYEGRSDGDSIKKIINQMKPRQLIIVHGPPEASQDLAECCRAFGGKDIKVYMPKLHETVDATSETHIYQVRLKDSLVSSLQFCKAKDAELAWIDGVLDMRVSKVDTGVILEEGELKDDGEDSEMQVEAPSDSSVIAQQKAMKSLFGDDEKETGEESEIIPTLEPLPPHEVPGHQSVFMNEPRLSDFKQVLLREGIQAEFVGGVLVCNNQVAVRRTETGRIGLEGCLCQDFYRIRDLLYEQYAIV
# Biological target: 3XMyc-RPRD1B wild type (full length) (human) (UniProt Q9NQG5)
# Assay: affinity purification with mass spectrometry; SILAC: tetracycline-induced 3XMyc-RPRD1B WT (heavy) and MT (light) in 293 Flp-In cells, anti-Myc immunoprecipitates from total lysate combined and analysed by MS
row,binding,Binder
1,binds,B1
2,binds,B2
3,binds,B3
4,binds,B4
5,binds,B5
6,binds,B6
7,binds,B7
8,binds,B8
